PubChem BioAssay AID1259272 – Sanger Institute – 2017
Test: 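Kinome-wide siRNA search for genes whose silencing boosts targeted drug effects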 (primary screen). Cells: SW1116 human colorectal cancer cells. Reagents: siRNA pool against human genes. Conditions: anchor drugs BYL719 (1 µM), cetuximab (5 µg/ml) or trametinib (10 nM), or DMSO vehicle; exposure length not given. Read-out: 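Replicate-averaged viability versus control-pool wells, with a robust z-score for siRNA alone and a per-drug synergy score (BYL719, cetuximab, trametinib)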. Scale: viability z-score, no drug: higher = more cells remaining; strongly negative means essential gene; viability, no drug: higher = more viable cells; synergy score with BYL719: higher = stronger synthetic-lethal synergy with the drug. Hit rule: 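a robust z-score under -3 with siRNA and no drug marks the gene essential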. Calls: active = essential (knock-down alone); inactive = no change.
The whole screen tested 794 reagents; this is a random part of them. Of all reagents, 7 (0.88%) were called active. 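Essential calls reflect knock-down without drug only, not synergy with drugs; drug exposure length not given.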 Unmarked entries are inactive. No viability above 1 is reported: the scale is capped. Not all columns of the deposit are shown. The record does not give: the amount of reagent, the time to read-out.

no.	target gene	viability z-score, no drug	viability, no drug (fraction of control)	synergy score with BYL719
1	PHKA2	-1.83	0.715	-0.132
2	RIPK3	-0.268	0.882	-0.188
3	BMP2K	-0.224	0.887	-0.103
4	PRKCI	0.842	1	0.00442
5	EXOSC10	-1.14	0.789	-0.108
6	TRIM27	0.842	1	0.024
7	YES1	-0.957	0.808	-0.242
8	STK17A	-2.65	0.629	-0.212
9	MAP2K1	0.631	0.978	-0.0387
10	GUCY2C	0.842	1	0.0901
11	CIB2	0.671	0.982	0.0073
12	CDKN1C	0.842	1	-0.0583
13	PASK	0.344	0.947	-0.0317
14	MAP3K3	-0.754	0.83	-0.0698
15	ADCK2	-0.144	0.895	0.068

The list goes on; the last 4 above are carried over.
no.	target gene	viability z-score, no drug	viability, no drug (fraction of control)	synergy score with BYL719
12	CDKN1C	0.842	1	-0.0583
13	PASK	0.344	0.947	-0.0317
14	MAP3K3	-0.754	0.83	-0.0698
15	ADCK2	-0.144	0.895	0.068
16	NEK2	-0.418	0.866	-0.0664
17	MAPK10	0.842	1	-0.0259
18	MAPK15	0.842	1	-0.00687
19	MARK3	0.355	0.948	-0.0365
20	ROCK1	0.842	1	0.0783
21	PKMYT1	0.425	0.956	-0.0541
22	MAK	-0.549	0.852	-0.0997
23	CKM	0.842	1	-0.0514
24	STK17B	0.842	1	0.000685
25	N4BP2	-0.353	0.873	-0.173
26	AURKA	-2.13	0.683	-0.0224
27	BRWD1	0.723	0.987	-0.0196
28	MAP3K7	-0.712	0.835	-0.198
29	PFKM	-0.851	0.82	-0.232
30	DNMT3A	0.842	1	-0.0512
31	PSKH2	0.0423	0.915	-0.00961
32	DCLK3	0.507	0.964	0.0878
33	FBXW7	0.842	1	-0.0788
34	PBK	0.0849	0.919	-0.0964
